# Patent US20100196311A1, “METHODS AND COMPOSITIONS CONTAINING mTOR INHIBITORS FOR ENHANCING IMMUNE RESPONSES” (priority 2009, published 2010)
# At least one compound was matched to its structure with a doubt left.
# Test system: T-bet
# Assay: T-bet mRNA and protein expression in OT-I cells
# Format: cell-based, mouse
# Experimental: FIG. 4. IL-12-Enhanced mTOR Phosphorylation Is Essential for T-bet-Determined Type I Effector Maturation of CD8^+ T Cells. (A-C) OT-I cells stimulated with Ag+B7.1 (±) IL-12 and rapamycin were evaluated for (A) mRNA for T-bet at the indicated time points by RT-PCR, (B) T-bet protein expression at the indicated time-points by ICS, and (C) T-bet protein expression by ICS before and after antigen recall. **p<0.0035; ***p<0.0005. (D) WT and Tbx21^−1− OT-I cells were stimulated with Ag+B7.1 (±) IL-12 and evaluated for IFN-γ production at the primary and secondary phase. ***p<0.0001. (E and F) OT-I cells stimulated with Ag+B7.1 (±) IL-12 and rapamycin were transduced with T-bet-ER retroviral vector (±) 4-HT (10 nM) and evaluated by ICS for (E) T-bet protein expression by ICS and (F) IFN-γ at secondary phase (168 hr). (G and H) OT-I cells stimulated with Ag+B7.1 (±) insulin (1 U/ml) and rapamycin were evaluated by ICS for (G) S6K phosphorylation at 48 hr and (H) T-bet expression at 72 hr. Experiments shown are representative of at least three (A, B, D, E, and F) and two (C, G, and H) independent experiments with similar outcomes. (Data are presented as mean±SEM).
# Retroviral Transduction and T-Bet Induction. T-bet-ER RV (Estrogen Responsive Retro Viral Vector) was cotransfected into Platinum-E cells together with the retroviral packaging vector pCL-Eco using LipoD293 DNA in vitro transfection reagent (SignaGen Laboratories) following the manufacturer's instructions. The medium was replaced the following day, and retroviral supernatant was collected 3 days after transfection. For transduction, naive OT-I cells stimulated for 24 hr, were suspended in retroviral supernatant containing polybrene (8 μg/ml; Sigma-Aldrich), and were spin-transduced at 2200 rpm for 90 min at 30° C. After spin-transduction, cells were cultured in fresh medium containing the same polarizing milieu as before, along with the addition of 4-HT (10 nM). At the end of 72 hr after initial stimulation, cells were washed thrice and maintained in the absence of any stimulation but in the presence of 4-HT and IL-7 (10 ng/ml).
# Because the sustained expression of T-bet is necessary and sufficient for imprinting type I effector cell fate (Matsuda et al., 2007) and mTOR inhibition reversed IL-12 imprinted type I effector maturation in OT-I cells (FIG. 3), we next sought to determine whether rapamycin treatment affects T-bet expression in OT-I cells by performing kinetic analysis of T-bet mRNA expression (FIG. 4A). […] Moreover, inhibition of mTOR activity at 12 hr was also able to achieve loss in T-bet expression, similar to the observed loss in type I effector maturation (FIG. 3E).
smiles,measurement,setting,value
CO[C@H]1C[C@@H]2CC[C@@H](C)[C@@](O)(O2)C(=O)C(=O)N2CCCC[C@H]2C(=O)O[C@H]([C@H](C)C[C@@H]2CC[C@@H](O)[C@H](OC)C2)CC(=O)[C@H](C)/C=C(\C)[C@@H](O)[C@@H](OC)C(=O)[C@H](C)C[C@H](C)/C=C/C=C/C=C/1C [rapamycin],T-bet expression before antigen recall,"144 hr, after IL-7 rest",blocked
same,T-bet protein reinduced upon antigen recall,168 hr,sensitive
same,Early T-bet expression,"Ag+B7.1 plus IL-12, 24-48 h, mTOR inhibition",did not affect
same,IL-12-induced sustained T-bet mRNA expression,barely detectable by 96 hr,blocked
